Measurements reported in the supplement of paper PMC10849652.
The list shows a part of the results.

Amino acid sequences for entries named in this document (tags omitted). A change or cut given only in a name is not applied to a line headed by its entry.
UniProt P55265: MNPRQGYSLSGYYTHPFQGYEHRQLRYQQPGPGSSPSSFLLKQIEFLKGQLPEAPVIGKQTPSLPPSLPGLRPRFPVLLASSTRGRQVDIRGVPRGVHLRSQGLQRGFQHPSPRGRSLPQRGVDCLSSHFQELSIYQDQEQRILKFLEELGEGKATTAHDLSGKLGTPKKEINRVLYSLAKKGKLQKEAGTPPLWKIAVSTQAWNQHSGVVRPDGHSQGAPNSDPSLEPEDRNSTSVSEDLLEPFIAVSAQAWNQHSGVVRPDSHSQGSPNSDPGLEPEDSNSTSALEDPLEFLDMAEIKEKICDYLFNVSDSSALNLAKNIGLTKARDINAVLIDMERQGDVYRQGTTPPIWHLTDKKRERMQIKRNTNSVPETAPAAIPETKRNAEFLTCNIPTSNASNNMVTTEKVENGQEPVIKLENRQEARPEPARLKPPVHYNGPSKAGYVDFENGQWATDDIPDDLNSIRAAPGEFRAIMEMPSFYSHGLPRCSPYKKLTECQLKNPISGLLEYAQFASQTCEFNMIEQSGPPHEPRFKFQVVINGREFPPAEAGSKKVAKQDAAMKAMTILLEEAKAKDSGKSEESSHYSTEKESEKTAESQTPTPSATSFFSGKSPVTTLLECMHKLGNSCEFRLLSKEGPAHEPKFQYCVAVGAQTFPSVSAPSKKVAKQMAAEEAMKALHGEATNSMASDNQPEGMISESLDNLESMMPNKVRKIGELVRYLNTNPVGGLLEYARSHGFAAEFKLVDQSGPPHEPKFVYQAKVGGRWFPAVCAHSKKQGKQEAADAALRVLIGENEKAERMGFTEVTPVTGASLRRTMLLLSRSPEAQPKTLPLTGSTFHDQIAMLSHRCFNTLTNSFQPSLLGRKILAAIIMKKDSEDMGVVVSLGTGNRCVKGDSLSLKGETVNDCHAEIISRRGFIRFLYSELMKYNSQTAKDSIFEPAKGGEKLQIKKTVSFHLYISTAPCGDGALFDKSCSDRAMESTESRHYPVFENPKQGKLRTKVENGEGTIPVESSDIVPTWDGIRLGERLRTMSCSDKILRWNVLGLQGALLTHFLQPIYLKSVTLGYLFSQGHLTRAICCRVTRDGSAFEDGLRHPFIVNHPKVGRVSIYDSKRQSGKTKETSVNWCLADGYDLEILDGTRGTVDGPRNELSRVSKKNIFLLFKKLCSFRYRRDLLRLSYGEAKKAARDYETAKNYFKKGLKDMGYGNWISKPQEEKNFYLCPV
UniProt Q9UEY8: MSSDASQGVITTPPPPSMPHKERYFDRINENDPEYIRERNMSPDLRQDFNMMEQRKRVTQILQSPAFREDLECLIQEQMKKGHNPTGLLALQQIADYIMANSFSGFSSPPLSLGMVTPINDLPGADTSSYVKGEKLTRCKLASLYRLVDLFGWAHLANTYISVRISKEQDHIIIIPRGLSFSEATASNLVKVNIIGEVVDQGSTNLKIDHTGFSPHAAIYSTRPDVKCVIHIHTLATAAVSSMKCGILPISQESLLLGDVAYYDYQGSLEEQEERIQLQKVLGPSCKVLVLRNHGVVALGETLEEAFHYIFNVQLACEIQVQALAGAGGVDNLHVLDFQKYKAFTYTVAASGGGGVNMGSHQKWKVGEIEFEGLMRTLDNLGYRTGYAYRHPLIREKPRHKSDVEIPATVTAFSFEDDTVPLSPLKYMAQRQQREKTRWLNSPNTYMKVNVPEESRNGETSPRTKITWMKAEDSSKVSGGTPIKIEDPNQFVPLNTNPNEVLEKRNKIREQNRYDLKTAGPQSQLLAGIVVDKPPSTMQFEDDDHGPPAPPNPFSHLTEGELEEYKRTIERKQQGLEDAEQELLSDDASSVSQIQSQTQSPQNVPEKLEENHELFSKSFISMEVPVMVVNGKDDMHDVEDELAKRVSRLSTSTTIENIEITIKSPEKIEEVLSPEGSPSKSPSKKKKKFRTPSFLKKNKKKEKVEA
UniProt Q6RW13: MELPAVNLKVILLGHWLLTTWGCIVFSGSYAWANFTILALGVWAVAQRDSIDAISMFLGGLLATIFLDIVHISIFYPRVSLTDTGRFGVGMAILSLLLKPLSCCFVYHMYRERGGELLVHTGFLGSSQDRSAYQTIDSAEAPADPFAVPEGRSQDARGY
UniProt Q15067: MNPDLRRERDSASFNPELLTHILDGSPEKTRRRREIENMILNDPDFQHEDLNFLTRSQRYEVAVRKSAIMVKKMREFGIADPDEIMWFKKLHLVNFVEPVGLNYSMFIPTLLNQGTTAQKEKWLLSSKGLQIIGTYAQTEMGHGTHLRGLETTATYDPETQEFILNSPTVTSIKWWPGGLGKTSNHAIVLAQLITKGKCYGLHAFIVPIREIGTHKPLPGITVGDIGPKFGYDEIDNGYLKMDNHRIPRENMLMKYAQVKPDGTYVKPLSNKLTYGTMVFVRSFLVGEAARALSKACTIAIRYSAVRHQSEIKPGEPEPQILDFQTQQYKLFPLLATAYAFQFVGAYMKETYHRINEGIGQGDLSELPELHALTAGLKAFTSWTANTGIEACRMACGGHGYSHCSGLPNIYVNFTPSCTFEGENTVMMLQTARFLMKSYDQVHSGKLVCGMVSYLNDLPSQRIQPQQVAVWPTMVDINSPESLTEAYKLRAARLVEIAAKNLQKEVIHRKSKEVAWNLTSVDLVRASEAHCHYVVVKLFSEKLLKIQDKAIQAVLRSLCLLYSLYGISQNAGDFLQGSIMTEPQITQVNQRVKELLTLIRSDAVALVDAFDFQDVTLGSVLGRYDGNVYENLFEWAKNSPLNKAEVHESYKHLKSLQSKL
UniProt O00154: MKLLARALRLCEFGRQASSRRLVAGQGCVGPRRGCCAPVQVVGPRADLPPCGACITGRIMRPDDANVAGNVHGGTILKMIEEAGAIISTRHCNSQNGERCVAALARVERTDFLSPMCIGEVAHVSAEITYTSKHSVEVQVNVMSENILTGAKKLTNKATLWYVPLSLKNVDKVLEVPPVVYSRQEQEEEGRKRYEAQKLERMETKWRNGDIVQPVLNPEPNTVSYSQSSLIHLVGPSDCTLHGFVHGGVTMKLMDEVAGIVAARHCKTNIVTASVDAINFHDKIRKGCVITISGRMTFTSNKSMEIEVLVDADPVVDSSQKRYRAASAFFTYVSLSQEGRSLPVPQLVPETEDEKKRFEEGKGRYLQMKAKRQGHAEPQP
UniProt Q9Y3D8, whole entry, looked up: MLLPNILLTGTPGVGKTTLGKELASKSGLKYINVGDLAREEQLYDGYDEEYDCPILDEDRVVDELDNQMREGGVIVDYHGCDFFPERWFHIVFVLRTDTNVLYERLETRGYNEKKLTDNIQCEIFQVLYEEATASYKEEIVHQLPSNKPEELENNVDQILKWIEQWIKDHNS
UniProt Q9H568: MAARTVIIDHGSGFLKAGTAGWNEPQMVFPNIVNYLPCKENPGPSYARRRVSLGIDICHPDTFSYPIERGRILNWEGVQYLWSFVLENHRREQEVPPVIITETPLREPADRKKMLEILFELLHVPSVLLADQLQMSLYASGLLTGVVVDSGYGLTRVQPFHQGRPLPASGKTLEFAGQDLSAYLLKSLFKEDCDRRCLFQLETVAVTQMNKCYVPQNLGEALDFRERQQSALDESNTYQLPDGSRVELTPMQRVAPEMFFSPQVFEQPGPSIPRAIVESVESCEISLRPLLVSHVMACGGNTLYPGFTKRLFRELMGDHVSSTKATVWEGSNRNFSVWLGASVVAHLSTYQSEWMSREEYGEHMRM
UniProt Q9UKV8, whole entry, looked up: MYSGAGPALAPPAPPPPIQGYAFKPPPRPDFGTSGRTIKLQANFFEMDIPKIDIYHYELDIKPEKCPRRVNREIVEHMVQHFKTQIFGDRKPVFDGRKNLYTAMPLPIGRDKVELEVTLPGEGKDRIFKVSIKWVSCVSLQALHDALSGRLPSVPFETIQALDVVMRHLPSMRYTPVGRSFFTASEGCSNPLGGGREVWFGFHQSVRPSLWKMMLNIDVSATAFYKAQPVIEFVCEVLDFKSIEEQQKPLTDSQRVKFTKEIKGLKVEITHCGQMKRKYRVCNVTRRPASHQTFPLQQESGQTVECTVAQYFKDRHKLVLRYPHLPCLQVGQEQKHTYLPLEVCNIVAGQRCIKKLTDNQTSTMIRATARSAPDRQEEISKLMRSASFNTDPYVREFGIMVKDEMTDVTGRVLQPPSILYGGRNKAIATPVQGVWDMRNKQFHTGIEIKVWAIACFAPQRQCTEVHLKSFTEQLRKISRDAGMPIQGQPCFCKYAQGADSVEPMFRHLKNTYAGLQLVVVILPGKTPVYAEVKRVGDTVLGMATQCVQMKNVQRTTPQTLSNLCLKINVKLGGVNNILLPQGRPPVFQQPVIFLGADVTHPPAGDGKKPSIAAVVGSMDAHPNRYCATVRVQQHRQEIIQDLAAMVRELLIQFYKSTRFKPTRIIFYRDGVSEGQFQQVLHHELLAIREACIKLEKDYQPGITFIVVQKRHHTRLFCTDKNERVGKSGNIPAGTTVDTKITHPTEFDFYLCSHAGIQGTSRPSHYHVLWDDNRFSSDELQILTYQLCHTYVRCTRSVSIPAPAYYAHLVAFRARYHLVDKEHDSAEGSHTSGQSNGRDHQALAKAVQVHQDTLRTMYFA
UniProt Q9UIJ7: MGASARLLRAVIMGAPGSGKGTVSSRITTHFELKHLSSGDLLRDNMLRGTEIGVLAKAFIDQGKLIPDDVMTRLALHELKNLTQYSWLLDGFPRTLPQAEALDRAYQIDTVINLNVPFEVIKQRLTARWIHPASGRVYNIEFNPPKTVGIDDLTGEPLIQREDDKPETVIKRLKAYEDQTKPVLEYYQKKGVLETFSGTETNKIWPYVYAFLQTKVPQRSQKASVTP
UniProt Q96BJ3: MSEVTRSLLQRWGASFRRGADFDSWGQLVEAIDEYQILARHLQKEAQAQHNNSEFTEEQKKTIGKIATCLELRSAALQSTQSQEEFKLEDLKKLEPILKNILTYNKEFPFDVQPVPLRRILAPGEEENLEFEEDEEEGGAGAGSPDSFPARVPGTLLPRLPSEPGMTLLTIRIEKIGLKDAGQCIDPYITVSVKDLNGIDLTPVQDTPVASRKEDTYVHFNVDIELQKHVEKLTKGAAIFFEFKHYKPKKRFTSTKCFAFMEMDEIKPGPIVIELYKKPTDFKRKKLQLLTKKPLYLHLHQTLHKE
UniProt Q9BRQ8: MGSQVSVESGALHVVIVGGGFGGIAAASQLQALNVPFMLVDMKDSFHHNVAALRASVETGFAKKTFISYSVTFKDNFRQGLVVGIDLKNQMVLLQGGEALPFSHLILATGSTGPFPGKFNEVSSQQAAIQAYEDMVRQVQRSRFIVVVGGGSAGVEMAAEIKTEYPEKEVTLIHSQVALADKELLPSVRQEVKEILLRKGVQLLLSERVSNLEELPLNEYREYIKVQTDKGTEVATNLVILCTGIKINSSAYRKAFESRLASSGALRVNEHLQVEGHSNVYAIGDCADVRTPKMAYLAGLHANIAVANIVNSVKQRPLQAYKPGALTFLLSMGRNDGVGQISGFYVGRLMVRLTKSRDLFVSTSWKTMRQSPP
UniProt P52895: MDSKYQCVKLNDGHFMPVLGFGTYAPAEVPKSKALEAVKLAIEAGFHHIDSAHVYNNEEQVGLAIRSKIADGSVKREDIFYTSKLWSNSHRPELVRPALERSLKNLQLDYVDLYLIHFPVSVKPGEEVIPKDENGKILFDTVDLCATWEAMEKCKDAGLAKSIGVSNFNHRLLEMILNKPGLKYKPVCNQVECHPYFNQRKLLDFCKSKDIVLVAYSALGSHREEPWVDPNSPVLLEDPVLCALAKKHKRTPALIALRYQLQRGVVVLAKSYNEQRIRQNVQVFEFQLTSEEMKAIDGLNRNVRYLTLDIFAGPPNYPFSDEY

Columns and labels:
Test in all cases: log2 fold change, soluble protein after heating vs DMSO (PISA); higher = thermal stabilisation; K562 lysate, 10 uM; active = over 0.2 and 3.5 SD of the protein, either way, in both replicates (recomputed)
erlotinib = compound: C#Cc1cccc(Nc2ncnc3cc(OCCOC)c(OCCOC)cc23)c1 [erlotinib]
In short: (§1)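 Dounce homogenisation of K562 pellets in PBS pH 7.4 with 1 mM MgCl2 produced a crude extract, used at 1 mg/mL protein. Exposure to 10 μM compound lasted 30 min, and aliquots were then heated for 3 min across 48°C-58°C, pooled and brought to 0.5% NP-40 at 4°C. The supernatant after 21,000xg for 90 min was quantified by TMTpro 16plex LC-MS/MS with channel sums equalised. Duplicate values are given as log-two fold change in thermal stability relative to solvent controls.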

[1] = compound: C/C(=N\NC(=O)C1=CC(=CC=C1)S(=O)(=O)N2CCOCC2)/C3=C(C=CC(=C3)Cl)O
In short: as §1

[2] = compound: C1=CC(=CC=C1C2=NC3=C(N2)C=C(C=C3)C(=O)N)OC4=CC=C(C=C4)Cl
In short: as §1

[3] = compound: C1=CC2=C(C=CC(=C2)/C=C\3/C(=O)NC(=NCC4=CC=CS4)S3)N=C1
In short: as §1

[4] = compound: C1=CC2=NC=CN=C2C=C1/C=C/3\C(=O)NC(=O)S3
In short: as §1

[5] = compound: C1=CC=C(C=C1)C2=NC(=C(N2)C3=CC=NC=C3)C4=CC(=C(C=C4)Cl)O
In short: as §1

[6] = compound: C1=CC=C2C(=C1)C3=NNC4=CC=CC(=C43)C2=O
In short: as §1

[7] = compound: C1CCN(C1)C(=O)NC2=CC=CC(=C2)NC3=NC=C(C(=N3)NCCC4=CN=CN4)Br
In short: as §1

[8] = compound: C1CN(CCC1(CC2=CC=C(C=C2)Cl)N)C3=NC=NC4=C3C=CN4
In short: as §1

IRAK-1-4 Inhibitor I = compound: C1COCCN1CCN2C3=CC=CC=C3N=C2NC(=O)C4=CC(=CC=C4)[N+](=O)[O-] [IRAK-1-4 Inhibitor I]
In short: as §1

ibrutinib = compound: C=CC(=O)N1CCC[C@@H](n2nc(-c3ccc(Oc4ccccc4)cc3)c3c(N)ncnc32)C1 [ibrutinib]
In short: as §1

[9] = compound: CC(=O)c1cnc2ccc(-c3cc(Cl)c(O)c(Cl)c3)nc2c1N[C@H]1CC[C@H](CN(C)C)CC1
In short: as §1

ralimetinib = compound: CC(C)(C)Cn1c(N)nc2ccc(-c3[nH]c(C(C)(C)C)nc3-c3ccc(F)cc3)nc21 [ralimetinib]
In short: as §1

[10] = compound: CC(C)(O)CC(=O)NCCn1ccc2ncnc(Nc3ccc(Oc4cccc(C(F)(F)F)c4)c(Cl)c3)c21
In short: as §1

[11] = compound: CC(C)C1=C2N=C(C=C(N2N=C1)NCC3=CC=CC=C3)NCCCCCCN
In short: as §1

[12] = compound: CC1=C(C(CC(=O)N1)C2=CC=C(C=C2)C(F)(F)F)C(=O)NC3=C(C=C4C(=C3)C=NN4)F
In short: as §1

[13] = compound: CC1=C(C2=C(C=C1)C(=O)C3=CC=CC=C3N2CCCN)C
In short: as §1

[14] = compound: CC1=C(C=C(C=C1)NC(=O)C2=CC(=CC=C2)C(C)(C)C#N)NC3=CC4=C(C=C3)N=CN(C4=O)C
In short: as §1

[15] = compound: CC1=C(C=C(C=C1)NC(=O)C2=CC(=CC=C2)N(C)C)NC(=O)C3=CC=C(C=C3)O
In short: as §1

[16] = compound: CC1=CC=C(C=C1)SC2=C3C=C(SC3=CN=C2)C(=O)N
In short: as §1

Target	log2 fold change (erlotinib)	log2 fold change [1]	log2 fold change [2]	log2 fold change [3]	log2 fold change [4]	log2 fold change [5]	log2 fold change [6]	log2 fold change [7]	log2 fold change [8]	log2 fold change (IRAK-1-4 Inhibitor I)	log2 fold change (ibrutinib)	log2 fold change [9]	log2 fold change (ralimetinib)	log2 fold change [10]	log2 fold change [11]	log2 fold change [12]	log2 fold change [13]	log2 fold change [14]	log2 fold change [15]	log2 fold change [16]
ADAR isoform 4 (UniProt P55265)	inactive: -0.029	inactive: -0.114	inactive: -0.06	inactive: -0.031	inactive: 0.002	inactive: 0.001	inactive: -0.029	inactive: 0.002	inactive: -0.017	inactive: 0	inactive: 0.152	inactive: -0.025	inactive: 0.029	inactive: -0.019	inactive: -0.03	inactive: 0.018	inactive: 0.016	inactive: -0.002	inactive: 0.015	inactive: -0.021
ADD3 (UniProt Q9UEY8)	inactive: -0.013	inactive: -0.01	inactive: 0.054	inactive: 0.013	inactive: -0.001	inactive: 0.015	inactive: -0.036	inactive: -0.007	inactive: -0.004	inactive: 0.033	inactive: 0	inactive: 0.009	inactive: 0.004	inactive: -0.049	inactive: -0.015	inactive: -0.002	inactive: 0.009	inactive: -0.005	inactive: -0.009	inactive: -0.014
AGO4 (UniProt Q9HCK5)	inactive: -0.038	inactive: -0.008	inactive: 0.031	inactive: -0.02	inactive: -0.031	inactive: 0.009	inactive: -0.015	inactive: 0.009	inactive: 0.016	inactive: -0.009	inactive: 0.034	inactive: -0.035	inactive: 0.022	inactive: -0.011	inactive: -0.049	inactive: 0.025	inactive: 0.05	inactive: 0	inactive: -0.013	inactive: -0.024
AGTRAP (UniProt Q6RW13)	inactive: -0.002	inactive: 0.068	inactive: 0.005	inactive: 0.081	inactive: -0.055	inactive: 0.006	inactive: 0.009	inactive: -0.059	inactive: 0.012	inactive: 0.027	inactive: 0.01	inactive: -0.038	inactive: 0.073	inactive: -0.021	inactive: -0.016	inactive: -0.033	inactive: -0.024	inactive: -0.005	inactive: 0	inactive: 0.024
ACOX1 isoform 2 (UniProt Q15067)	inactive: -0.01	inactive: -0.023	inactive: 0.007	inactive: 0.007	inactive: 0.01	inactive: 0.011	inactive: -0.017	inactive: -0.007	inactive: 0.024	inactive: 0.081	inactive: 0.036	inactive: 0.052	inactive: 0.098	inactive: -0.044	inactive: -0.013	inactive: -0.016	inactive: -0.043	inactive: 0.001	inactive: -0.026	inactive: -0.024
ACOT7 isoform 7 (UniProt O00154)	inactive: 0.003	inactive: 0.001	inactive: 0.013	inactive: -0.005	inactive: 0.012	inactive: 0.027	inactive: 0.016	inactive: -0.009	inactive: -0.001	inactive: 0.016	inactive: 0.025	inactive: -0.006	inactive: -0.027	inactive: -0.035	inactive: -0.008	inactive: -0.002	inactive: 0.012	inactive: 0.039	inactive: -0.017	inactive: -0.015
AK6 (UniProt Q9Y3D8)	inactive: -0.007	inactive: 0.005	inactive: 0.008	inactive: -0.024	inactive: -0.009	inactive: 0.002	inactive: -0.013	inactive: -0.03	inactive: 0.013	inactive: -0.044	inactive: 0.018	inactive: -0.02	inactive: 0.014	inactive: 0.008	inactive: -0.001	inactive: 0	inactive: 0.056	inactive: -0.044	inactive: 0.009	inactive: -0.029
ACTL8 (UniProt Q9H568)	inactive: -0.015	inactive: 0.247	inactive: -0.042	inactive: 0.012	inactive: -0.025	inactive: 0.048	inactive: -0.056	inactive: -0.069	inactive: -0.024	inactive: 0.098	inactive: 0.097	inactive: 0.066	inactive: 0.001	inactive: -0.041	inactive: -0.032	inactive: 0.004	inactive: -0.052	inactive: 0.044	inactive: -0.014	inactive: -0.009
AFDN (UniProt J3KN01)	inactive: 0.03	inactive: 0.021	inactive: -0.01	inactive: -0.029	inactive: -0.012	inactive: 0.034	inactive: 0.007	inactive: -0.019	inactive: 0.039	inactive: -0.01	inactive: 0.036	inactive: -0.012	inactive: -0.009	inactive: -0.032	inactive: 0	inactive: -0.053	inactive: -0.034	inactive: -0.014	inactive: 0.036	inactive: 0.012
AHNAK (UniProt Q09666)	inactive: -0.002	inactive: 0.045	inactive: 0.044	inactive: -0.009	inactive: -0.037	inactive: 0.019	inactive: 0.012	inactive: -0.003	inactive: -0.013	inactive: 0.012	inactive: -0.005	inactive: -0.023	inactive: -0.007	inactive: 0.026	inactive: 0.024	inactive: -0.001	inactive: 0	inactive: 0.001	inactive: -0.004	inactive: -0.01
AGO2 (UniProt Q9UKV8)	inactive: -0.03	inactive: -0.024	inactive: -0.003	inactive: -0.001	inactive: -0.004	inactive: 0.003	inactive: -0.011	inactive: 0.006	inactive: -0.01	inactive: 0.01	inactive: 0	inactive: -0.017	inactive: 0.016	inactive: -0.018	inactive: -0.03	inactive: 0.003	inactive: -0.017	inactive: -0.023	inactive: -0.012	inactive: -0.019
AK3 (UniProt Q9UIJ7)	inactive: -0.028	inactive: -0.014	inactive: 0.001	inactive: -0.008	inactive: -0.02	inactive: -0.018	inactive: 0.005	inactive: 0.004	inactive: 0.013	inactive: 0	inactive: -0.004	inactive: 0.007	inactive: -0.029	inactive: 0.003	inactive: 0.014	inactive: -0.008	inactive: 0.005	inactive: -0.032	inactive: -0.033	inactive: 0.008
AIDA (UniProt Q96BJ3)	inactive: -0.012	inactive: 0.007	inactive: 0.019	inactive: -0.032	inactive: -0.011	inactive: 0.023	inactive: -0.006	inactive: -0.007	inactive: 0.045	inactive: 0.007	inactive: 0.028	inactive: 0.02	inactive: -0.001	inactive: -0.044	inactive: -0.035	inactive: -0.011	inactive: 0.001	inactive: 0.006	inactive: 0.014	inactive: -0.034
AIFM2 (UniProt Q9BRQ8)	inactive: -0.094	inactive: 0	inactive: 0.224	inactive: 0.071	inactive: -0.117	inactive: 0.117	inactive: 0.068	inactive: -0.025	inactive: 0.018	inactive: -0.01	inactive: -0.016	inactive: -0.075	inactive: 0.028	active: 0.643	inactive: 0.275	inactive: -0.033	inactive: -0.161	inactive: -0.04	inactive: -0.051	inactive: 0.024
AKR1C2 (UniProt P52895)	inactive: 0.03	inactive: -0.167	inactive: 0.005	inactive: 0.015	inactive: 0.006	inactive: 0.013	inactive: -0.046	inactive: -0.033	inactive: 0.006	inactive: -0.024	inactive: 0.031	inactive: 0.021	inactive: -0.043	inactive: -0.035	inactive: 0.025	inactive: -0.025	inactive: 0.038	inactive: -0.013	inactive: 0.018	inactive: 0.019
